No constants are given. Whether binding was seen depends on the method and setting. In cells and extracts the contact can be indirect. Some entries that bind do so weakly or less than the wild type.
How the values were obtained:
[1] = target: P25 as BiFC fusion (P25-nYFP and P25-cYFP) (potato virus X) (UniProt P09396); test: split reporter; BiFC with halves of YFP; agroinfiltration of H2B-RFP transgenic N. benthamiana leaves; fluorescence at 72 hr postinfiltration
[2] = target: β-glucuronidase (GUS) as BiFC fusion (GUS-cYFP and GUS-nYFP) (UniProt P05804); test: as above

Chains of the proteins cited; added tags and fusions are not shown.
UniProt P09396: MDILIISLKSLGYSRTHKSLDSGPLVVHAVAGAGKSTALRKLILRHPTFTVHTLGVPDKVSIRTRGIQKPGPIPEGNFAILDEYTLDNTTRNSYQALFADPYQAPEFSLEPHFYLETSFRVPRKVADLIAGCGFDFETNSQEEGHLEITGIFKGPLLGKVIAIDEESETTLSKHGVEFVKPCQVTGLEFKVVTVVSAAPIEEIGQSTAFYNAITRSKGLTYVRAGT
UniProt P05804: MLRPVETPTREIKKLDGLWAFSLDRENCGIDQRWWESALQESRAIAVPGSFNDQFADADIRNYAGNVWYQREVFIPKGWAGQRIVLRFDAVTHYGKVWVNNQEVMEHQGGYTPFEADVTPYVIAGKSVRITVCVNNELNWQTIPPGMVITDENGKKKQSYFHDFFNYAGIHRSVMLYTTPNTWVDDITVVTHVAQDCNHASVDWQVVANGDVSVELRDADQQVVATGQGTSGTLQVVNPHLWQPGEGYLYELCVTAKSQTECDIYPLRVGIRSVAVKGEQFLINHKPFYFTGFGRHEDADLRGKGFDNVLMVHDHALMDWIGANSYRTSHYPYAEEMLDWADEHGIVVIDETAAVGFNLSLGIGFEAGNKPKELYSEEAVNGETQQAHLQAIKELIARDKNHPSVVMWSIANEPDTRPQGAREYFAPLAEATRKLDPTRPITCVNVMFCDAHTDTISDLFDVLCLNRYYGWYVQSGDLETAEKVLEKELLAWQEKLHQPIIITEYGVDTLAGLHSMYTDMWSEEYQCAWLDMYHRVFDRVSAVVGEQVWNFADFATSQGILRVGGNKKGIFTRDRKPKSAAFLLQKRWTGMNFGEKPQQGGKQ

“P25 as BiFC fusion (P25-nYFP and P25-cYFP) (from UniProt P09396 1-226)” was tested. Which binding [1] did it give?
The binding was “binds”.

What about the binding [2] of the same substance?
Its binding is “no binding”.

For “β-glucuronidase (GUS) as BiFC fusion (GUS-cYFP and GUS-nYFP) (from UniProt P05804 1-603) (enzyme)”, which binding [1] is on record?
The binding was “no binding”.

Reference: PMC7549001
